Source: publication PMC7082075
These are yes or no findings as the source states them, for the method shown. For some assays here: Binding calls can cover weak binding; strength is not graded here. Sequences can lack the tags named with a protein.

Assays:
Assay in all cases: pull-down; 20 μg GST or GST-tagged protein on Glutathione Sepharose beads; 100–200 μg purified protein added, 30 min at 4°C; 20 mM Tris-HCl pH 8.0, 200 mM NaCl, 0.5% Triton-X100; Coomassie staining or anti-MBP immunoblot; both purified
[1] = target: GST-CI-MPR (aa21–48)
[2] = target: GST-SEMA4C-Δ4 (aa1–145)
[3] = target: GST-INS1R tail
[4] = target: GST-SEMA4C (aa47–65)
[5] = target: GST-SEMA4C-tail (aa1–149)
[6] = target: GST-CI-MPR Δloop5 mutant
[7] = target: GST-CI-MPR (aa21–56)
[8] = target: GST-INS1R tail H5Y
[9] = target: GST-IGF1R tail
[10] = target: GST-SEMA4C (aa47–71)
[11] = target: GST-CI-MPR (aa1–164)

B1: MBP-SNX5^PX (domain or fragment, UniProt Q9Y5X3 20-180)
chain: SVSVDLNVDPSLQIDIPDALSERDKVKFTVHTKTTLPTFQSPEFSVTRQHEDFVWLHDTLIETTDYAGLIIPPAPTKPDFDGPREKMQKLGEGEGSMTKEEFAKMKQELEAEYLAVFKKTVSSHEVFLQRLSSHPVLSKDRNFHVFLEYDQDLSVRRKNTK
binding [1]: binds
binding [2]: binds
binding [3]: no binding
binding [4]: binds
binding [5]: binds
binding [6]: binds
binding [7]: binds
binding [8]: binds
binding [9]: binds
binding [10]: binds
binding [11]: binds
